To fix the notation:
T1: V5::TurboID::NES::eIF2A (N-terminal TurboID fusion of mouse eIF2A) (mouse) (UniProt Q8BJW6)
T1 sequence: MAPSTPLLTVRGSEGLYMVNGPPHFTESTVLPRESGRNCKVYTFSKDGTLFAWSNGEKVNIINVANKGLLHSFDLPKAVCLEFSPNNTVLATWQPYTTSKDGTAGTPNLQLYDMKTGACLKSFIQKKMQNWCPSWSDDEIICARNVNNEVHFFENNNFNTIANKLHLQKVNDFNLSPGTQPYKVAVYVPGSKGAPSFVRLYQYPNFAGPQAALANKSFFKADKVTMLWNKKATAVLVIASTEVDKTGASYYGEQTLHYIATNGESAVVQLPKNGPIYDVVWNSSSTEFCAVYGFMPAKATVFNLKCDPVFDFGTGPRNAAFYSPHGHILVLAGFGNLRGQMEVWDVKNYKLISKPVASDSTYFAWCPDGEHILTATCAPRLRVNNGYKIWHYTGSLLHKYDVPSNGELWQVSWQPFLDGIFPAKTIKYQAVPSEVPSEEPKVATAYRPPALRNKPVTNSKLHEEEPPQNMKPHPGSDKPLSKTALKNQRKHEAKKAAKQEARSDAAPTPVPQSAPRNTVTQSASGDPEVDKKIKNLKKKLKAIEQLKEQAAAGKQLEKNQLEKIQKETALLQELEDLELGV

Amino acid sequences for entries named in this document (tags omitted).
UniProt P52479: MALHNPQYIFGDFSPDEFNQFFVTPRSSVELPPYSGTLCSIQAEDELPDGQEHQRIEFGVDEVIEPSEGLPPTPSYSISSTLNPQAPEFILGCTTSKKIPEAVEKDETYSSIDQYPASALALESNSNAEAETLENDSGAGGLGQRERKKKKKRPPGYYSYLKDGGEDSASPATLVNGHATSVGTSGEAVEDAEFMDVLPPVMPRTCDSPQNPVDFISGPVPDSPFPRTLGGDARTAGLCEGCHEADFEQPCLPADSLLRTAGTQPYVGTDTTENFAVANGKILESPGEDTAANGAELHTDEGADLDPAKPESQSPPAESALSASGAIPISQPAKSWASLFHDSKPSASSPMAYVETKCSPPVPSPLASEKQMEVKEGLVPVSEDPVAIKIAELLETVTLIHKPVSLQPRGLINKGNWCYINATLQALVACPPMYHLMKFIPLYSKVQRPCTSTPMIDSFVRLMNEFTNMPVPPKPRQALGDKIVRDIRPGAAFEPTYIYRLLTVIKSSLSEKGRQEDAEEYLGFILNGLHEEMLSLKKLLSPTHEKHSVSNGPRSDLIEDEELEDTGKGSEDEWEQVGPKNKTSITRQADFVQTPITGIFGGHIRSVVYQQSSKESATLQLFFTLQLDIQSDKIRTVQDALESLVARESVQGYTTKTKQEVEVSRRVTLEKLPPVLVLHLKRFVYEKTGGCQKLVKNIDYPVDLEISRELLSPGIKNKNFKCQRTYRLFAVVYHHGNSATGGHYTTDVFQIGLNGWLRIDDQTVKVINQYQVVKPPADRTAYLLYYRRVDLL
UniProt Q8CHP5: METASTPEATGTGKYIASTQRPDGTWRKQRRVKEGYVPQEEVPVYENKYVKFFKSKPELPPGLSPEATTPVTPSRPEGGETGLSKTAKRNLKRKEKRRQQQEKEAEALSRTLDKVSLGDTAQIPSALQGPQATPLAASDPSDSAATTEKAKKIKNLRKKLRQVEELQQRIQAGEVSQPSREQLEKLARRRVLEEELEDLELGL
UniProt Q99PL5: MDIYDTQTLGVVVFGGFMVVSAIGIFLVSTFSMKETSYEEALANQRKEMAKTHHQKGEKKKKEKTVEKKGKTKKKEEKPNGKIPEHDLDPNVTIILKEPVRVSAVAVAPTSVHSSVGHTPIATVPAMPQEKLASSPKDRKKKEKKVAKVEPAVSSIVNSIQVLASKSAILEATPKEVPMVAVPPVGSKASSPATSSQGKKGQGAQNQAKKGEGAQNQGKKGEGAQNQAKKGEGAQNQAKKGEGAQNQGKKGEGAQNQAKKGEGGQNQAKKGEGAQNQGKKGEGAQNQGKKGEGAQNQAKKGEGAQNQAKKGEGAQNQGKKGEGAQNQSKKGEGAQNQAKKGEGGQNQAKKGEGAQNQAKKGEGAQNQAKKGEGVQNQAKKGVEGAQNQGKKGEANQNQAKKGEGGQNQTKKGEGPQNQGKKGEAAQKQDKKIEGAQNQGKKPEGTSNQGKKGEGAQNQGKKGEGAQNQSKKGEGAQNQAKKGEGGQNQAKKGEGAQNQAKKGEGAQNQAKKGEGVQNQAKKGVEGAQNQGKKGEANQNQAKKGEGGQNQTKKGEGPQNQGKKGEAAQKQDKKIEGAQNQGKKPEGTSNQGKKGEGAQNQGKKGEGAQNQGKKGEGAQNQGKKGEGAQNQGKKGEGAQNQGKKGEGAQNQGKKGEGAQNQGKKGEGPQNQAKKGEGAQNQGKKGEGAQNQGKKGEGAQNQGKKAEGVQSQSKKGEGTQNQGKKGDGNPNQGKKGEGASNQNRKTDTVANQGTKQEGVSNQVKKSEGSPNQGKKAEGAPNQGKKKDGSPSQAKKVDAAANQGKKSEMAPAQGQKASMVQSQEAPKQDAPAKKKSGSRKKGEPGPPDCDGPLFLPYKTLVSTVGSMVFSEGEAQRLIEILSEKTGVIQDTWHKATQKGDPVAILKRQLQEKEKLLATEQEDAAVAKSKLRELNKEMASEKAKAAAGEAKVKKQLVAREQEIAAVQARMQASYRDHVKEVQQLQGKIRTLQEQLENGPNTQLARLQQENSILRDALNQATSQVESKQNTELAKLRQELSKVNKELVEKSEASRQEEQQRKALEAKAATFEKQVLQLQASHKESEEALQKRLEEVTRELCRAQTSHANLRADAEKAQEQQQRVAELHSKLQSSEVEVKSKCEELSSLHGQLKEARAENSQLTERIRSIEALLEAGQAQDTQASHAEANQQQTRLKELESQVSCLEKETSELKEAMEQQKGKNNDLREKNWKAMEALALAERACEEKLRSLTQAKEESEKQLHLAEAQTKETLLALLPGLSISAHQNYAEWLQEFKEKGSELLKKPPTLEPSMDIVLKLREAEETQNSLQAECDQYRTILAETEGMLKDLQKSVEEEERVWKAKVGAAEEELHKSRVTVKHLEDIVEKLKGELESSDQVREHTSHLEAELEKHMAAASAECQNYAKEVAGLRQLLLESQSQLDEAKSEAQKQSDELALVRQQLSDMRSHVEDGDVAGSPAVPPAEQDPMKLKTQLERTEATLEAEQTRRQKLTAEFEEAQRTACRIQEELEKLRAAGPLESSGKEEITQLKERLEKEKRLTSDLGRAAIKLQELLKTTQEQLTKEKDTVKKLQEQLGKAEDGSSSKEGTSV

B1: SPATS2 (spermatogenesis-associated serine rich 2; mouse, endogenous in SCC cells) (protein, UniProt Q8K1N4 1-545)
chain: MSRKQSQKDSSGFIFDLQSNTVLAQGGTFENMKEKINAVRAIVPNKSNNEIILVLQHFDNCVDKTVQAFMEGSASEVLKEWIVTGKKKNKKKKSKPKPASEASGSAPDSSKSAPIQEEQPASSEKGSINGYHVNGAINDAESVDSLSEGLETLSIDARELEDPEFAAAETLDRTGSVLENGVSDFEPKSLTAHSISNVQQSRNAAKSLSRTTPGAQVSNLGMENVPLSSTNKKLGSNIEKSVKDLQRCTVSLARYRVVVKEEMDASIKKMKQAFAELQSCLMDREVALLAEMDKVKAEAMEILLSRQKKAELLKKMTDVAVRMSEEQLVELRADIKHFVSERKYDEDLGRVARFTCDVETLKQSIDSFGQVSHPKNSYSTRSRCSLVAPVSLSGPSDGSAASSSPDASVPSLPGANKRNCAPREASAAMTNSSDRPCQAHREVFPGNRRGGQGYRAQSQKTADPSNPGRHDSVGRYRNSSWYSSGPRYQGVPPQAPGNAGERSRPYSAGTNGTGAISEPSPPKPSFKKGLPQRKPRASQAEAANS
B2: CAPRIN1 (mouse, endogenous in SCC cells) (protein, UniProt Q60865 1-707)
chain: MPSATSHSGSGSKSSGPPPPSGSSGSEAAAGAAAPASQHPATGTGAVQTEAMKQILGVIDKKLRNLEKKKGKLDDYQERMNKGERLNQDQLDAVSKYQEVTNNLEFAKELQRSFMALSQDIQKTIKKTARREQLMREEAEQKRLKTVLELQYVLDKLGDDDVRTDLKQGLSGVPILSEEELSLLDEFYKLVDPERDMSLRLNEQYEHASIHLWDLLEGKEKPVCGTTYKALKEIVERVFQSNYFDSTHNHQNGLCEEEEAASAPTVEDQVAEAEPEPAEEYTEQSEVESTEYVNRQFMAETQFSSGEKEQVDEWTVETVEVVNSLQQQPQAASPSVPEPHSLTPVAQSDPLVRRQRVQDLMAQMQGPYNFIQDSMLDFENQTLDPAIVSAQPMNPTQNMDMPQLVCPQVHSESRLAQSNQVPVQPEATQVPLVSSTSEGYTASQPLYQPSHATEQRPQKEPMDQIQATISLNTDQTTASSSLPAASQPQVFQAGTSKPLHSSGINVNAAPFQSMQTVFNMNAPVPPANEPETLKQQSQYQATYNQSFSSQPHQVEQTELQQDQLQTVVGTYHGSQDQPHQVPGNHQQPPQQNTGFPRSSQPYYNSRGVSRGGSRGARGLMNGYRGPANGFRGGYDGYRPSFSNTPNSGYSQSQFTAPRDYSGYQRDGYQQNFKRGSGQSGPRGAPRGRGGPPRPNRGMPQMNTQQVN
B3: SERBP1 (mouse, endogenous in SCC cells) (protein, UniProt Q9CY58 1-407)
chain: MPGHLQEGFGCVVTNRFDQLFDDESDPFEVLKAAENKKKEAGGGGVGGPGAKSAAQAAAQTNSNAAGKQLRKESQKDRKNPLPPSVGVADKKEETQPPVALKKEGIRRVGRRPDQQLQGDGKLIDRRAERRPPRERRFEKPLEEKGEGGEFSVDRPIIERPIRGRGGLGRGRGGRGRGMGRGDGFDSRGKREFDRHSGSDRSSFSHYSGLKHEDKRGGSGSHNWGTVKDELTESPKYIQKQISYNCSDLDQSNVTEETPEGEEHPVADTENKENEVEEVKEEGPKEMTLDEWKAIQNKDRAKVEFNIRKPNEGADGQWKKGFVLHKSKSEEAHAEDSVMDHHFRKPANDITSQLEINFGDLGRPGRGGRGGRGGRGRGGRPNRGSRTDKSSASAPDVDDPEAFPALA
B4: UBAP2 (mouse, endogenous in SCC cells) (protein, UniProt Q91VX2 1-1132)
chain: MMTSVSNDRCRGAREKPQMPTAHAAQSQKQVVQATAEQMRLAQVIFDKNDSDFEAKVKQLMEVTGKNQDECIVALHDCNGDVNKAINILLEGNSDTTSWETVGGKKKNFGRESSENKENREKRTEREASRGRGTNNRKGRGGNRVREFKGEENGIDCSQGDKPAERGKRARGRGFGRGRGRGTGRFSAQSMGTFNPADYSESMSTDGCGTKLAVWEAAQNGTDEGPEGLAKSHSMSQEPPSKSSYGLKGAWKNSVEEWTTEDWTEDLSETKVFTASSAPAENHVTPGHSIDLVALLHKPAPPTQATEVNSFETSQQQGFGQALVFTNSQHNNQMAPGTANSTSASSYSPQSLSSVLGSGFGELPQSNMVNISNSQILDKLKPPGLSPFPAASSAQQNDTASPPATTAAWDLKPSAPQPSVLSRLDFKSQPEPSPVLSQLSQRQQHQTQAVSVPPPGLESFSSLAKPRESTAGDGPSTVSRLLQLPNMTVENIVSAHQPQPKHIKLPKRRVPPASKVPVSAVEMPGSSDVTGLNVQFGALEFGSEPSLSEFGSAASASENSNQIPISLYPKSLSEPLNASFPMTSAVQSSTYTTSVVTSSTLTSSALSSTSPVTTSSSYDQSSVHTRIAYQSSASPPDSAPGSVANGHGGGRSQHTVDTTSSVPAPKKTDPSALPSVSTLPGPASCTALLPSSAQHTATLPSLTPAAAELSSSPLSQLSSSLSGHQNSMTSAHATRSTSTPHTHASVESTASSAAFSAAATSAPSAPSSGVVLPGSMSTVSSLCLGGTTVSVPSSSTRATALVTSGKAPPNLPQGVPPLLHNQYLVGPGGLLPAYPIYGYDELQMLQSRLPMDYYGIPFAAPTALASRDGNLANNPYSGDVTKFGRGDSASPAPPTTPAQAQQSQSQTHHTAQQPFLNPGLPPGYSYTGLPYYTGVPSAFQYGPTMFVPPTSAKQHGVALSTPPTPFQQASGYGQHAYSTGYDDLTQGTAAGDYTKGGYGGSSQAPNKSTGSGPGKGVSVSSGTGLPDMTGSVYNKTQTFDKQGFHAGTPPPFSLPSALGSTGPLAPAAAPGYAPAPFLHIMPAHQQPHSQLLHHHLQQDAPSGSGQRSQPSSLQPKSQASKPTYGSAPYWTN
B5: G3BP2 (mouse, endogenous in SCC cells) (protein, UniProt P97379 1-482)
chain: MVMEKPSPLLVGREFVRQYYTLLNKAPEYLHRFYGRNSSYVHGGVDASGKPQEAVYGQNDIHHKVLSLNFSECHTKIRHVDAHATLSDGVVVQVMGLLSNSGQPERKFMQTFVLAPEGSVPNKFYVHNDMFRYEDEVFGDSEPELDEESEDEVEEEQEDRQPSPEPVQENANSAYYDAHPVTNGIEEPLEESSHEPEPEPESETKTEELKPQVEEKHLEELEEKSATPPPAEPASLPQEPPKAFSWASVTSKNLPPSGTVSSSGIPPHVKAPVSQPRVDAKPEVQSQPPRVREQRPRERPGFPPRGPRPGRGDMEQNDSDNRRIIRYPDSHQLFVGNLPHDIDENELKEFFMSFGNVVELRINTKGVGGKLPNFGFVVFDDSEPVQRILIAKPIMFRGEVRLNVEEKKTRAARERETRGGGDDRRDIRRNDRGPGGPRGIVGGGMMRDRDGRGPPPRGGMTQKLGSGRGTGQMEGRFTGQRR
B6: MTDH (metadherin; mouse, endogenous in SCC cells) (protein, UniProt Q80WJ7 1-579)
chain: MAARSWQDELAQQAEEGSARLRELLSVGLGFLRTELGLDLGLEPKRYPGWVILVGTGALGLLLLFLLGYGWAAACAGARKKRRSPPRKREEAAPPTPAPDDLAQLKNLRSEEQKKKNRKKLPEKPKPNGRTVEVPEDEVVRNPRSITAKQAPETDKKNEKSKKNKKKSKSDAKAVQNSSRHDGKEVDEGAWETKISHREKRQQRKRDKVLTDSGSLDSTIPGIENIITVTTEQLTTASFPVGSKKNKGDSHLNVQVSNFKSGKGDSTLQVSSRLNENLTVNGGGWSEKSVKLSSQLSEEKWNSVPPASAGKRKTEPSAWTQDTGDTNANGKDWGRNWSDRSIFSGIGSTAEPVSQSTTSDYQWDVSRNQPYIDDEWSGLNGLSSADPSSDWNAPAEEWGNWVDEDRASLLKSQEPISNDQKVSDDDKEKGEGALPTGKSKKKKKKKKKQGEDNSHTQDTEDLEKDTREELPVNTSKARPKQEKACSLKTMSTSDPAEVLIKNSQPVKTLPPAISAEPSITLSKGDSDNSSSQVPPMLQDTDKPKSNAKQNSVPPSQTKSETNWESPKQIKKKKKARRET
B7: UBAP2L (mouse, endogenous in SCC cells) (protein, UniProt Q80X50 1-1107)
chain: MMTSVGTNRARGNWEQPQNQNQTQHKQRPQATAEQIRLAQMISDHNDADFEEKVKQLIDITGKNQDECVIALHDCNGDVNRAINVLLEGNPDTHSWEMVGKKKGVSGQKDGGQTESNEEGKENRDRDRDYSRRRGGPPRRGRGASRGREFRGQENGLDGTKSGGPSGRGTDRGRRGRGRGRGSSGRRGGRFSAQGMGTFNPADYAEPANTDDNYGNSSGNTWNNTGHFEPDDGTRLDFIGVEGSNYPRKFETAPGAWRTATEEWGTEDWNEDLSETKIFTASNVSSVPLPAENVTITAGQRIDLAVLLGKTPSSMENDSSNLDPSQAPSLAQPLVFSNSKQNAISQPASGSTFSHHSMVSMLGKGFGDVGEAKGGSTTGSQFLEQFKTAQALAQLAAQHSQSGSTTTSSWDMGSTTQSPSLVQYDLKSANDSTVHSPFTKRQAFTPSSTMMEVFLQEKPPAVATSTAAPPPPSSPLPSKSTSAPQMSPGSSDNQSSSPQPAQQKLKQQKKKTSLTSKIPALAVEMPGSADISGLNLQFGALQFGSEPVLSDYESTPTTSASSSQAPSSLYTSTASESSSTVSSNQSQESGYQSGPIQSTTYTSQNNAQGPLYEQRSTQTRRYPSSISSSPQKDLTQAKNGFSSVQATQLQTTQSVEGATGSAVKSESPSTSSIPSLNETVPAASLLTTANQHSSSLSGLSHTEEIPNTTTTQHSSALSTQQNTLSSSTSSGRTSTSTLLHTSVESEANLHSSSSTFSTTSSTVSAPPPVVSVSSSLNSGSSLGLSLGSNSTVTASTRSSVATTSGKAPPNLPPGVPPLLPNPYIMAPGLLHAYPPQVYGYDDLQMLQTRFPLDYYSIPFPTPTTPLTGRDGSLASNPYSGDLTKFGRGDASSPAPATTLAQPQQNQTQTHHTTQQTFLNPALPPGYSYTSLPYYTGVPGLPSTFQYGPAVFPVAPTSSKQHGVNVSVNASATPFQQPSGYGSHGYNTGVSVTSSNTGVPDISGSVYSKTQQSFEKQGFHSGTPAASFNLPSALGSGGPINPATAAAYPPAPFMHILTPHQQPHSQILHHHLQQDGQTGSGQRSQTSSIPQKPQTNKSAYNSYSWGAN

These are yes or no findings as the source states them, for the method shown. In cells and extracts the contact can be indirect. Here binding means that the protein was enriched with, or labelled near, the bait; the list need not be complete. Where a sequence is shown, tags or fusion partners need not be part of it.

The target in the experiment is T1, V5::TurboID::NES::eIF2A (N-terminal TurboID fusion of mouse eIF2A) (mouse). Description: proximity labelling.
Turning to “USP10 (mouse, endogenous in SCC cells) (from UniProt P52479 1-792) (enzyme)”, the binding entry was “binds”. The entry for “PYM1 (mouse, endogenous in SCC cells) (from UniProt Q8CHP5 1-203)” is “binds”; for “RRBP1 (mouse, endogenous in SCC cells) (from UniProt Q99PL5 1-1605)” it is “binds”. Consider B1, for which the binding entry is reported as “binds”. Then B2, with “binds”; and B3, with “binds”. As to B4, the binding entry is reported as “binds”. Then B5, with “binds”.

B6: the binding entry was “binds”. Then B7, with “binds”.

The record behind these values is publication doi:10.1101/2025.05.22.655611.
